Reference: patent publication US8119159B2, “Solid oral dosage form containing an enhancer” (Merrion Research III Limited, priority 1999, dated 2012)

How the values were obtained:
[1] = humans, aqueous intrajejunal infusion over 25 minutes with sodium caprate
[2] = humans, intrajejunal bolus solution with sodium caprate
[3] = oral, with coffee or orange juice; cited from earlier work

systemic absorption of alendronate [1]: considerably enhanced | gastrointestinal absorption of alendronate compared to Fosamax reference tablet [2]: significantly enhanced
SMILES: NCCCC(O)(P(=O)(O)O)P(=O)(O)O [alendronate]
impairment of absorption by coffee or orange juice [3]: ≥ 60%
